{"source": "patent KR20180060184A", "about": "“Ccsp-2와 특이적으로 결합하는 펩타이드 및 이의 용도” (재단법인 아산사회복지재단, priority 2016, dated 2018)", "note": "Part of at least one peptide drawing is inferred or uncertain, most often the ends. Residues, ends and D or L forms follow the SMILES beside them."}
{"target": "T1, CCSP-2 (Homo sapiens, UniProt Q5GFL6)", "T1 construct": "His tag; made in house; host or cells: CCSP-2-overexpressing HeLa cell line (provided by Case Western Reserve University); the secreted protein was captured from the conditioned medium on Ni-NTA agarose", "T1 sequence (Q5GFL6 24-755)": "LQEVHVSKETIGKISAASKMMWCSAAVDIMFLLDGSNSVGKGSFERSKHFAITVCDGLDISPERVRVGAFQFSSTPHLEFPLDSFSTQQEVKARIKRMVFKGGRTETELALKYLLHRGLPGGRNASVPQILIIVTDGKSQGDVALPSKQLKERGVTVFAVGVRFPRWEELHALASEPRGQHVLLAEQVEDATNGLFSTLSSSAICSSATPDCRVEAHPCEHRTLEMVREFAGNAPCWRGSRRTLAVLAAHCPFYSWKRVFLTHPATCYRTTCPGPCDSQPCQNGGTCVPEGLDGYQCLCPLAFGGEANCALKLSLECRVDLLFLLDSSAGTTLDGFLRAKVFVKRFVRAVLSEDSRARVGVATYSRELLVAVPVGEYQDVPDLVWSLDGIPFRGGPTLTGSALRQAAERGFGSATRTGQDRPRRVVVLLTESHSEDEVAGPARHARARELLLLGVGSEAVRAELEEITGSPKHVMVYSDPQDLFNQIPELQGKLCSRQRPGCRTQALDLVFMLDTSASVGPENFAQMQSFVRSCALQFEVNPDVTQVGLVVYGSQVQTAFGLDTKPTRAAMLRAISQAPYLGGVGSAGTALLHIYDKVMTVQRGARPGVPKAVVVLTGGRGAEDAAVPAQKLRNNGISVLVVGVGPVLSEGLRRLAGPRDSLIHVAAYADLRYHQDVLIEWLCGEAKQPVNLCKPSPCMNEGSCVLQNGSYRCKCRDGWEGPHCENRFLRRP", "assay": "Phage display biopanning on purified CCSP-2 and sequencing of selected clones", "type": "binding", "conditions": "after 4 rounds of panning on CCSP-2", "units": {"빈도 (frequency among the 56 sequences, percent)": "%"}}
{"molecule": "N=C(N)NCCC[C@H](NC(=O)[C@H](Cc1ccccc1)NC(=O)[C@H](CCCCN)NC(=O)[C@H](CO)NC(=O)[C@H](Cc1ccccc1)NC(=O)[C@@H](N)CCC(=O)O)C(=O)N[C@@H](CO)C(=O)O", "note": "[MSJ2, EFSKFRS] (H-EFSKFRS-OH)", "빈도 (frequency among the 56 sequences, percent)": 7.1}
{"molecule": "CSCC[C@H](N)C(=O)N[C@@H](CO)C(=O)N[C@H](C(=O)NCC(=O)N[C@@H](CC(C)C)C(=O)N[C@@H](CO)C(=O)N[C@@H](CO)C(=O)O)[C@@H](C)O", "note": "[MSJ3, MSTGLSS] (H-MSTGLSS-OH)", "빈도 (frequency among the 56 sequences, percent)": 7.1}
{"molecule": "CC(C)C[C@H](NC(=O)[C@H](CCCCN)NC(=O)[C@@H](N)CC(C)C)C(=O)NCC(=O)N[C@@H](CCC(=O)O)C(=O)N[C@@H](CCCCN)C(=O)N[C@@H](Cc1c[nH]c2ccccc12)C(=O)O", "note": "[MSJ6, LKLGEKW] (H-LKLGEKW-OH)", "빈도 (frequency among the 56 sequences, percent)": 10.7}
